This is one part of the list.
The targets below were run with O=C(CCCCCCC(=O)Nc1ccccc1)NO [vorinostat] (assay: log2 fold change, soluble protein after heating vs DMSO (PISA); higher = thermal stabilisation; K562 lysate, 10 uM; active = over 0.2 and 3.5 SD of the protein, either way, in both replicates (recomputed)).
Summary of the method: (§1)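 Following dounce homogenisation of K562 pellets in PBS pH 7.4 with 1 mM MgCl2, crude extract at 1 mg/mL protein was incubated for 30 min with 10 μM compound. Aliquots were then heated for 3 min over 48°C-58°C and pooled, NP-40 was added to 0.5% at 4°C, and soluble protein was recovered as the supernatant at 21,000xg for 90 min. Channel-sum-equalised TMTpro 16plex LC-MS/MS quantified this protein. Each value, from duplicates, is a log-two fold change in thermal stability relative to solvent controls.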

By UniProt entry, the sequences of proteins in these tests, tags left out. Where a name states a change or a piece, a line headed by the entry shows the natural chain unless it says otherwise.
UniProt O95197: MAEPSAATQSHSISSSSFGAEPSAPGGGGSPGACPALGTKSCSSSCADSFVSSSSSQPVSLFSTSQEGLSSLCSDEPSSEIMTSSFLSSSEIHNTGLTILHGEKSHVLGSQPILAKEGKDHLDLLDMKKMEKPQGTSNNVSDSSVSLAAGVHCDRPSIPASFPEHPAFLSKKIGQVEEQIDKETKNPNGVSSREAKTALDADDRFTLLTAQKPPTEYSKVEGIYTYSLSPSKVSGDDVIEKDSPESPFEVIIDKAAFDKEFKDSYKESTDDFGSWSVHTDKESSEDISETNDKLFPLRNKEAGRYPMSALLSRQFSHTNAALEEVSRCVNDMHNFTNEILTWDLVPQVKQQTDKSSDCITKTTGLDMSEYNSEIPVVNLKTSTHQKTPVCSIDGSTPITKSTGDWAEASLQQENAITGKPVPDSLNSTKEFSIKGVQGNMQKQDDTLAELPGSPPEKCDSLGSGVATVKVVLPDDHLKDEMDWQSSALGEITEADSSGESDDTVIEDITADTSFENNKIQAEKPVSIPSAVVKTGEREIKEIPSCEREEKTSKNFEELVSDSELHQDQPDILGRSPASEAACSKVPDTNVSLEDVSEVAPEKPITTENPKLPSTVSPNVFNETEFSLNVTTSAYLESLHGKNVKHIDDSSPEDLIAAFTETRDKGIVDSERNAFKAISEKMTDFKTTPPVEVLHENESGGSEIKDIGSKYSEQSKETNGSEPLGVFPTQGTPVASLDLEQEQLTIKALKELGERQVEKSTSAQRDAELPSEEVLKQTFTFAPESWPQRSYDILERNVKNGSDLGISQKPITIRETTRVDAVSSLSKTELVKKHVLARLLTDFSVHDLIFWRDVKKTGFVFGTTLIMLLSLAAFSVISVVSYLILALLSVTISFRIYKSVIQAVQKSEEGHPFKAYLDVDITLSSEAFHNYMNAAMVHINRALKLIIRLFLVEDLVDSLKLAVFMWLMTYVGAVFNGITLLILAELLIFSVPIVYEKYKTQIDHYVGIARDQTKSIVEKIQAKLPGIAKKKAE
UniProt Q9UBS0: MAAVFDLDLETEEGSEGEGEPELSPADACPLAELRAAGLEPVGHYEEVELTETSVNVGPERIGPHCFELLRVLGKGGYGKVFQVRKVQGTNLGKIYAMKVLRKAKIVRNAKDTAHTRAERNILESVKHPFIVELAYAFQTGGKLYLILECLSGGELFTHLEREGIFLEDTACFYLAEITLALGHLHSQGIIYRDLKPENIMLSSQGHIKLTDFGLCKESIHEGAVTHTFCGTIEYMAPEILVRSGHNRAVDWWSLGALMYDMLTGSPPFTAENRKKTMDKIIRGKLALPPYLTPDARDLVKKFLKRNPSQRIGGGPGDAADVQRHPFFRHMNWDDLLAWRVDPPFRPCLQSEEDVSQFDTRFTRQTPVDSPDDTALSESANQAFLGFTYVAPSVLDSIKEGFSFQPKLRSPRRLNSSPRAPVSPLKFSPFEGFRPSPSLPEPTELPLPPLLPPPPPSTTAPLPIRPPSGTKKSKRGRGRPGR
UniProt P21817: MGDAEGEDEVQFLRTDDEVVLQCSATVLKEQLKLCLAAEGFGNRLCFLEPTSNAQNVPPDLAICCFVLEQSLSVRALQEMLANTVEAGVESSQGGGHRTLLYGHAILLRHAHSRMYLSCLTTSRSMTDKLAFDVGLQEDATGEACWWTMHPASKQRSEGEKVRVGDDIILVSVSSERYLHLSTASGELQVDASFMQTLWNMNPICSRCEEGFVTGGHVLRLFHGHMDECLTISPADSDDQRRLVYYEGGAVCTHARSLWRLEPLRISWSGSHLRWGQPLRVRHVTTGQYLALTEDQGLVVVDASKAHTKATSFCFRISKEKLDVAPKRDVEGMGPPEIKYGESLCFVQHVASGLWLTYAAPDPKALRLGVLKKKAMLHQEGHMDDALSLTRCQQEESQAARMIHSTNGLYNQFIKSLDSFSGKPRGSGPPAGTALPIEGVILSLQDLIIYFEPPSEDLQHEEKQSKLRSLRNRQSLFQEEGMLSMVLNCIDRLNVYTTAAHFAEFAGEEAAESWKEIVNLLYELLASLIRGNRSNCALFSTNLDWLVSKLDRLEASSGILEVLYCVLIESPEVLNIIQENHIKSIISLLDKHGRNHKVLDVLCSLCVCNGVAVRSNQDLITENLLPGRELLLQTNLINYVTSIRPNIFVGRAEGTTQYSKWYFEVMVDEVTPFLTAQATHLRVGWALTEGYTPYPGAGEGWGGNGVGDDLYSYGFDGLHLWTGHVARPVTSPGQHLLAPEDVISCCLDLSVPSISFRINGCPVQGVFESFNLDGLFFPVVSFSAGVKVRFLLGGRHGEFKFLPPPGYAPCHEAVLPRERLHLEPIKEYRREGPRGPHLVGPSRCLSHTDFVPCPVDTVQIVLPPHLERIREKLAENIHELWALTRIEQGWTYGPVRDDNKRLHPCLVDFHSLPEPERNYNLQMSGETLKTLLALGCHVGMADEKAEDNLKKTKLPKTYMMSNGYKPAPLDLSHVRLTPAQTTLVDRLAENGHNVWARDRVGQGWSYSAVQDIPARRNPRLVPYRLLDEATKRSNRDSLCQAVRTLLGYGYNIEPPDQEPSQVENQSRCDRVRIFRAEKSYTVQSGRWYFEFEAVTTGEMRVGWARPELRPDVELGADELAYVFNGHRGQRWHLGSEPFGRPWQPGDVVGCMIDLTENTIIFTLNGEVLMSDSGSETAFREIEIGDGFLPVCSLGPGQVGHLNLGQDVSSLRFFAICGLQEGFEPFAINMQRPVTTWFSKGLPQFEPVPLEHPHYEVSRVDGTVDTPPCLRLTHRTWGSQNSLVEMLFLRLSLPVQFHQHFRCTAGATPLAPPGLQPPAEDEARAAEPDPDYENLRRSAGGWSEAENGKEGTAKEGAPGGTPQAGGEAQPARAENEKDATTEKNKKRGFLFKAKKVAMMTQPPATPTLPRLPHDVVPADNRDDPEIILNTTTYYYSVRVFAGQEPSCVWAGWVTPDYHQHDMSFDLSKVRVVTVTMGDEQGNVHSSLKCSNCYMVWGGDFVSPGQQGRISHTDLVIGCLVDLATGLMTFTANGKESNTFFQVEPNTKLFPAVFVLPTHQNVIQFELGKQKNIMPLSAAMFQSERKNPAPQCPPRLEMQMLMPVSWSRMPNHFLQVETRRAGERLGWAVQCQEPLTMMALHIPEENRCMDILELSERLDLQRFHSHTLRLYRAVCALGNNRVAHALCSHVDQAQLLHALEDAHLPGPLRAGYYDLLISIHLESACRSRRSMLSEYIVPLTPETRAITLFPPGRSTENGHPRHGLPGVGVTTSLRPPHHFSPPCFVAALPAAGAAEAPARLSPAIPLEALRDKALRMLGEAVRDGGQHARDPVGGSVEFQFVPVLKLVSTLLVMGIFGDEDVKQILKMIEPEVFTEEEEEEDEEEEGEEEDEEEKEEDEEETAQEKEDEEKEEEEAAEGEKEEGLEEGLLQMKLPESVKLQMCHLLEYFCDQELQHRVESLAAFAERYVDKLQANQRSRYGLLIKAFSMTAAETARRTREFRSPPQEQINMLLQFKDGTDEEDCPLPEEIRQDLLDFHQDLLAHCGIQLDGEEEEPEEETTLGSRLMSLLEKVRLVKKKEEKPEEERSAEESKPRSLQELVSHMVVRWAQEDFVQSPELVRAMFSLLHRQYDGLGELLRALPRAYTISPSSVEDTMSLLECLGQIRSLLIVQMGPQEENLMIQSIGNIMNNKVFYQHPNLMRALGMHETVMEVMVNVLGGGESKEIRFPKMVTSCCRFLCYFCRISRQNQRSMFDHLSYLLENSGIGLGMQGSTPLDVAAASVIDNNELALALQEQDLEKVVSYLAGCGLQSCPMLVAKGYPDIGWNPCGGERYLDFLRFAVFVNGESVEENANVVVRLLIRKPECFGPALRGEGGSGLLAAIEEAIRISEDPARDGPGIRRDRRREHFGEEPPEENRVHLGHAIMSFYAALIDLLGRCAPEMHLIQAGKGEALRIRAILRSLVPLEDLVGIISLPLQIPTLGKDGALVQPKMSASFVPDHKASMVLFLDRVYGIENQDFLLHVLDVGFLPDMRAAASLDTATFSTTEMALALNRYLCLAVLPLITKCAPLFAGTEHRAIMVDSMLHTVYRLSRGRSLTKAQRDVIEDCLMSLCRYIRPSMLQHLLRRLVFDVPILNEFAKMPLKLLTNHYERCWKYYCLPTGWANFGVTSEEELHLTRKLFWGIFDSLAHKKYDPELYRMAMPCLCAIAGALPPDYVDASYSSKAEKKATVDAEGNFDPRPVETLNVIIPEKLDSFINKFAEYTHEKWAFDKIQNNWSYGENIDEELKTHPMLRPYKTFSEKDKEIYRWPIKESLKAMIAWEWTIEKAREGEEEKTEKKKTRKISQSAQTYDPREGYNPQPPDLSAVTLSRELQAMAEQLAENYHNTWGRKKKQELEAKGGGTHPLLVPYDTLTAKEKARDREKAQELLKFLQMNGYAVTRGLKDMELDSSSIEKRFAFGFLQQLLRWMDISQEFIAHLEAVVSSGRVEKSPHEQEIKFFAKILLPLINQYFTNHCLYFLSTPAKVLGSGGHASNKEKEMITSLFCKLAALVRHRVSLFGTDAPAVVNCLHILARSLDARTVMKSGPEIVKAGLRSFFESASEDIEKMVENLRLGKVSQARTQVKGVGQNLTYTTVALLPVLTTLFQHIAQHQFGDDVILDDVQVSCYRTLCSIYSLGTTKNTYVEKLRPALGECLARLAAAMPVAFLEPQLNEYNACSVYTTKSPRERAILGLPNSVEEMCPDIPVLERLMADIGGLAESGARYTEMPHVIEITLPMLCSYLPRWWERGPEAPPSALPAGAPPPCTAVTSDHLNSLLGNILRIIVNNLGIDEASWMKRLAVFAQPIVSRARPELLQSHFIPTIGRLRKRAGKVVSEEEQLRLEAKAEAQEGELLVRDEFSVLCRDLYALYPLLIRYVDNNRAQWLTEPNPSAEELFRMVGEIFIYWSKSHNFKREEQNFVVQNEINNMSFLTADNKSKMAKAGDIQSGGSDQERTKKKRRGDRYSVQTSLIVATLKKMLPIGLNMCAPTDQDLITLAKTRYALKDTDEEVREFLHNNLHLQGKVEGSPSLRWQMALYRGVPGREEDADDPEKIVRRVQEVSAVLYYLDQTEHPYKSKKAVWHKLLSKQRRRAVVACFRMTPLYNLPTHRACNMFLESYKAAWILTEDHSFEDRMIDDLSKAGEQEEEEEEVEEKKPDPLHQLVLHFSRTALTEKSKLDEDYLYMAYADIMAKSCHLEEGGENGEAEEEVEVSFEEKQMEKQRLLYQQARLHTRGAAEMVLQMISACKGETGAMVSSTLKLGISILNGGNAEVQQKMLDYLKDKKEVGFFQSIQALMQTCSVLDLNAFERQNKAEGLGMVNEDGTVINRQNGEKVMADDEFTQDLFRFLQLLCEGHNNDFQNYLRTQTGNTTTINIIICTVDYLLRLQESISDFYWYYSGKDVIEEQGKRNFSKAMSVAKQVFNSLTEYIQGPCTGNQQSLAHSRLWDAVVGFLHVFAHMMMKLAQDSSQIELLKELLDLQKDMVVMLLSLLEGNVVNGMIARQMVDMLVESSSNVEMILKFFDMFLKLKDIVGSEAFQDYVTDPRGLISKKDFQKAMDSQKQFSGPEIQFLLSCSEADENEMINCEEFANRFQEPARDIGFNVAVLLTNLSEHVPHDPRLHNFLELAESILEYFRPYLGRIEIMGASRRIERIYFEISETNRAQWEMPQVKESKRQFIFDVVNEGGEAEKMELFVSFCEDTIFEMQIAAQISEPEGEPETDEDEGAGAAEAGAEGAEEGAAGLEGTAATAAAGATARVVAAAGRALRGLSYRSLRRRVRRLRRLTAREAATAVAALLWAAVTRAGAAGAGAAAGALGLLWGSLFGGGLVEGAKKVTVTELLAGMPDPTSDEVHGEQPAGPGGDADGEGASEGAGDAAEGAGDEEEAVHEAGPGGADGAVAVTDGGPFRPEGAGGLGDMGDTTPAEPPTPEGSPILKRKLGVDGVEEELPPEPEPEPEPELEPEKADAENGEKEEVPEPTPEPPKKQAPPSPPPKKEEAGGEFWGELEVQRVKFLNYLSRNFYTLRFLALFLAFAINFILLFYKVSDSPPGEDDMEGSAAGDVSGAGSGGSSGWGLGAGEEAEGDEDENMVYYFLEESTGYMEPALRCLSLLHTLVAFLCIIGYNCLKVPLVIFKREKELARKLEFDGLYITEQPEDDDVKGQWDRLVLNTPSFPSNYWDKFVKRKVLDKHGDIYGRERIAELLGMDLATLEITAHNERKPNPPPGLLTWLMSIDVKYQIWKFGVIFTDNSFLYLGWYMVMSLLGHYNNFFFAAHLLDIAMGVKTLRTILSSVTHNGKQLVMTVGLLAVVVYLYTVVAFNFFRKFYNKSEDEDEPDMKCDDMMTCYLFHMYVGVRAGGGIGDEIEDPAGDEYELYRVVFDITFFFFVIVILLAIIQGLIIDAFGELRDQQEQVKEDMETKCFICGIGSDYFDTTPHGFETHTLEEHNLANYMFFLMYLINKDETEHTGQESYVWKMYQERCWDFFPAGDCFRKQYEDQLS

log2 fold change, inactive:
RPL8 (UniProt P62917) 0.12
RPS9 (UniProt P46781) 0.125
RPS7, A0A2R8Y623 -0.037
RPS25 (UniProt P62851) 0.163
RXYLT1 (UniProt Q9Y2B1) 0.154
RPL38 (UniProt P63173) 0.048

Each target was assayed with O=C(O)c1ccc2c(c1)nc(Nc1cccc(Cl)c1)c1ccncc12 [silmitasertib] in the same assay as above.
Summary of the method: as §1

log2 fold change, inactive:
RPS21 (UniProt P63220) 0.002
RUNX1 isoform 8 (UniProt Q01196) -0.001
S100A14 (UniProt Q9HCY8) -0.101
RRAGC (UniProt Q9HB90) 0.012
S100A7A (UniProt Q86SG5) -0.077
RTN4R (UniProt Q9BZR6) -0.246
RTN3 isoform 5 (UniProt O95197) -0.035
RSL24D1 (UniProt Q9UHA3) -0.023
RPS27 (UniProt P42677) -0.119
RPS6KB2 (UniProt Q9UBS0) 0.04
RPS15 (UniProt P62841) -0.009
RUNDC1 (UniProt Q96C34) -0.157
RSBN1 (UniProt Q5VWQ0) 0.039
RPLP0P6 (UniProt Q8NHW5) 0.004
S100A10 (UniProt P60903) -0.1
RYR1 (UniProt P21817) -0.017
RPL7A (UniProt P62424) 0.002
S100A6 (UniProt P06703) -0.036
RXRA (UniProt P19793) 0.07
RSL1D1 (UniProt O76021) 0
RTTN (UniProt Q86VV8) 0.138
RUFY3 isoform 2 (UniProt Q7L099) -0.058
RPS11 (UniProt P62280) 0.028
RPL8 (UniProt P62917) 0
RPS9 (UniProt P46781) 0.042
RPS7, A0A2R8Y623 -0.121
RPS25 (UniProt P62851) 0.032
RXYLT1 (UniProt Q9Y2B1) -0.078
RPL38 (UniProt P63173) 0.027

Each target was assayed with O=C1NC(=O)C(c2cnc3ccccn23)=C1c1cn2c3c(cc(F)cc13)CN(C(=O)N1CCCCC1)CC2 in the same assay as above.
Summary of the method: as §1

log2 fold change, inactive:
RPS21 (UniProt P63220) -0.051
RUNX1 isoform 8 (UniProt Q01196) -0.031
RRAGC (UniProt Q9HB90) -0.015
S100A7A (UniProt Q86SG5) 0.377
RTN3 isoform 5 (UniProt O95197) 0.095
RSL24D1 (UniProt Q9UHA3) -0.008
RPS27 (UniProt P42677) 0.077
RPS6KB2 (UniProt Q9UBS0) 0.002
S100A16 (UniProt Q96FQ6) 0.085
RPS15 (UniProt P62841) -0.011
RUNDC1 (UniProt Q96C34) -0.026
RSBN1 (UniProt Q5VWQ0) 0.009
RRN3 (UniProt Q9NYV6) -0.016
RWDD3 (UniProt Q9Y3V2) -0.033
RPLP0P6 (UniProt Q8NHW5) -0.003
RPS19BP1 (UniProt Q86WX3) -0.026
RSC1A1 (UniProt Q92681) -0.127
S100A10 (UniProt P60903) -0.117
RYR1 (UniProt P21817) -0.069
RPL7A (UniProt P62424) 0.049
S100A6 (UniProt P06703) -0.071
RXRA (UniProt P19793) -0.08
RSL1D1 (UniProt O76021) 0.037
RUFY3 isoform 2 (UniProt Q7L099) -0.022
RPS11 (UniProt P62280) 0.018
RPL8 (UniProt P62917) 0.089
RPS9 (UniProt P46781) 0.002
RPS3 (UniProt E9PJN9) -0.025
RUFY2 isoform 1 (UniProt Q8WXA3) -0.129
RPS25 (UniProt P62851) 0.032
RPL38 (UniProt P63173) -0.013
RTL8A (UniProt Q9BWD3) 0.022

These targets were tested with c1cn2cc(-c3ccc4cn[nH]c4c3)nc(Nc3ccc(N4CCOCC4)cc3)c2n1 [entospletinib] in the same assay as above.
Summary of the method: as §1

log2 fold change, inactive:
RPS21 (UniProt P63220) -0.027
RUNX1 isoform 8 (UniProt Q01196) -0.006
S100A14 (UniProt Q9HCY8) -0.14
RRAGC (UniProt Q9HB90) 0.019
RTN3 isoform 5 (UniProt O95197) 0.123
RSL24D1 (UniProt Q9UHA3) -0.029
RPS27 (UniProt P42677) -0.004
RPS6KB2 (UniProt Q9UBS0) -0.025
RPS15 (UniProt P62841) 0.051
RSBN1 (UniProt Q5VWQ0) 0.004
RRN3 (UniProt Q9NYV6) 0.033
RPLP0P6 (UniProt Q8NHW5) 0.017
RPS19BP1 (UniProt Q86WX3) -0.311
RYR1 (UniProt P21817) 0.101
RPL7A (UniProt P62424) -0.003
S100A6 (UniProt P06703) -0.005
RSL1D1 (UniProt O76021) 0.013
RTN4 isoform 3 (UniProt Q9NQC3) -0.031
RTTN (UniProt Q86VV8) 0.053
RPS11 (UniProt P62280) 0.002
RPL8 (UniProt P62917) -0.006
RPUSD1 (UniProt Q9UJJ7) -0.008
RPS9 (UniProt P46781) 0.004
RPS7, A0A2R8Y623 -0.391
RPS3 (UniProt E9PJN9) 0.053
RUFY2 isoform 1 (UniProt Q8WXA3) -0.014
RPS25 (UniProt P62851) 0
RPL38 (UniProt P63173) 0.013
RTL8A (UniProt Q9BWD3) -0.14
RPP30 (UniProt Q5VU11) 0.053
